Measured values from patent US9878984B2, “Anti-cancer compounds” (NORTHWESTERN UNIVERSITY, priority 2008, dated 2018).
“Also recorded” adds a separate entry of the source. Some results were stated once for a whole list of compounds, not compound by compound. For at least one compound, name, drawing or mass did not settle the structure.

These molecules were tested on topoisomerase II (topo II) (assay: Topoisomerase II inhibition assay (topo II-DNA cleavable complexes in treated cells)). Conditions: HeLa cells, [GI99%], 20 hr, normalized to mitoxantrone.
Type: cell-based, human
`CN(C)CCN1C(=O)c2cccc3c(N)ccc(c23)C1=O` [A1, 6-amino-2-[2-(dimethylamino)ethyl]-1H-benz[de]isoquinoline-1,3(2H)-dione] was tested, and the “stabilization of topo II-DNA cleavable complexes” value (from here on “stabilization”) was “very little to no detectable stabilized topo II-DNA cleavable complexes; also recorded: do not stabilized topoll-DNA cleavable complexes”. With `CCCNc1ccc2c3c(cccc13)C(=O)N(CCN(C)C)C2=O` [A2, 6-propylamino-2-[2-(dimethylamino)ethyl]-1H-benz[de]isoquinoline-1,3(2H)-dione] the “stabilization” value was “very little to no detectable stabilized topo II-DNA cleavable complexes; also recorded: do not stabilized topoll-DNA cleavable complexes”. For `C=CCNc1ccc2c3c(cccc13)C(=O)N(CCN(C)C)C2=O` [A3, 6-allylamino-2-[2-(dimethylamino)ethyl]-1H-benz[de]isoquinoline-1,3(2H)-dione], the “stabilization” value was “very little to no detectable stabilized topo II-DNA cleavable complexes; also recorded: do not stabilized topoll-DNA cleavable complexes”. For `COCCNc1ccc2c3c(cccc13)C(=O)N(CCN(C)C)C2=O` [A4, 6-methoxyethylamino-2-[2-(dimethylamino)ethyl]-1H-benz[de]isoquinoline-1,3(2H)-dione], the “stabilization” value was “very little to no detectable stabilized topo II-DNA cleavable complexes; also recorded: do not stabilized topoll-DNA cleavable complexes”. `CCCCCCNc1ccc2c3c(cccc13)C(=O)N(CCN(C)C)C2=O` [A5, 6-hexylamino-2-[2-(dimethylamino)ethyl]-1H-benz[de]isoquinoline-1,3(2H)-dione] was tested, and the “stabilization” value was “very little to no detectable stabilized topo II-DNA cleavable complexes; also recorded: do not stabilized topoll-DNA cleavable complexes”. With `CN(C)CCN1C(=O)c2cccc3c(NC4CCCCC4)ccc(c23)C1=O` [A6, 6-cyclohexylamino-2-[2-(dimethylamino)ethyl]-1H-benz[de]isoquinoline-1,3(2H)-dione] the “stabilization” value was “very little to no detectable stabilized topo II-DNA cleavable complexes; also recorded: do not stabilized topoll-DNA cleavable complexes”. With `CN(C)CCN1C(=O)c2cccc3c(N4CCCCC4)ccc(c23)C1=O` [A7, 6-piperidinyl-2-[2-(dimethylamino)ethyl]-1H-benz[de]isoquinoline-1,3(2H)-dione] the “stabilization” value was “very little to no detectable stabilized topo II-DNA cleavable complexes; also recorded: do not stabilized topoll-DNA cleavable complexes”. With `CCN(CC)c1ccc2c3c(cccc13)C(=O)N(CCN(C)C)C2=O` [A8, 6-diethylamino-2-[2-(dimethylamino)ethyl]-1H-benz[de]isoquinoline-1,3(2H)-dione] the “stabilization” value was “very little to no detectable stabilized topo II-DNA cleavable complexes; also recorded: do not stabilized topoll-DNA cleavable complexes”. `CN(C)CCN1C(=O)c2cccc3cccc(c23)C1=O` [A9, 2-[2-(dimethylamino)ethyl]-1H-benz[de]isoquinoline-1,3(2H)-dione] was tested, and the “stabilization” value was “very little to no detectable stabilized topo II-DNA cleavable complexes; also recorded: do not stabilized topoll-DNA cleavable complexes”. In the case of `CN(C)CCN1C(=O)c2cccc3cc(N)cc(c23)C1=O` [amonafide, reference compound], the “stabilization” value is reported as “very little to no detectable stabilized topo II-DNA cleavable complexes”.

Same assay, conditions: HeLa cells, [GI99%], 20 hr, normalized to mitoxantrone; listed as Amonafide
`CN(C)CCN1C(=O)c2cccc3cc(N)cc(c23)C1=O` [amonafide, reference compound] was tested, and the “stabilization” value was “do not stabilized topoll-DNA cleavable complexes”.
